Experimental data: PubChem BioAssay AID1259308 (NCATS, 2017)

- Aim: 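Candidate targets for better recombinant protein yield in mammalian cells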 (primary screen)
- Cells: human HEK293 embryonic kidney cells stably expressing firefly luciferase (HEK-CMV-Luc2-Hygro)
- Knock-down reagent: single siRNA against human genes, 0.8 pmol siRNA per well
- Timing: 72 h
- Detection: 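Luciferase light (ONE-Glo) measured on one replicate plate set and viability (CellTiter-Glo) on the other, scaled to a negative control siRNA, with robust z-scores and luciferase per cell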
- Direction: total luciferase, z-score and total luciferase, % of control: higher = more reporter protein produced; luciferase per cell, z-score: higher = more reporter output per viable cell
- Call rule: 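An siRNA counts as active if its total luciferase robust z-score exceeds 3; genes with two or more such siRNAs out of three were retested with fresh siRNAs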
- Calls: active = raised luciferase; inactive = no rise
Here is an unselected part of about 59,000 deposited reagents. Of all reagents, about 1,510 (2.6%) got an active call. 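Calls use total luciferase alone and ignore viability, so some active siRNAs may act by altering cell number.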 Not all columns of the deposit are shown.

The first 3 records, ahead of the listing:
| target | PubChem SID | total luciferase, z-score | total luciferase, % of control | luciferase per cell, z-score | call |
| --- | --- | --- | --- | --- | --- |
| TNFSF12 (TNF superfamily member 12) | SID160720719 | -0.938 | 63.2 | -1.81 | inactive |
| TNFSF12 (TNF superfamily member 12) | SID160720720 | 0.0852 | 83.6 | -0.103 | inactive |
| TNFSF12 (TNF superfamily member 12) | SID160720721 | -0.0391 | 81.1 | 0.0999 | inactive |

The list itself, repeating the preview:
| target | PubChem SID | total luciferase, z-score | total luciferase, % of control | luciferase per cell, z-score | call |
| --- | --- | --- | --- | --- | --- |
| TNFSF12 (TNF superfamily member 12) | SID160720719 | -0.938 | 63.2 | -1.81 | inactive |
| TNFSF12 (TNF superfamily member 12) | SID160720720 | 0.0852 | 83.6 | -0.103 | inactive |
| TNFSF12 (TNF superfamily member 12) | SID160720721 | -0.0391 | 81.1 | 0.0999 | inactive |
| ITGB8 (integrin subunit beta 8) | SID160776021 | -0.697 | 68 | -0.908 | inactive |
| ITGB8 (integrin subunit beta 8) | SID160776022 | 0.595 | 93.7 | 1.14 | inactive |
| ITGB8 (integrin subunit beta 8) | SID160776024 | -0.954 | 62.9 | -0.417 | inactive |
| SLC25A33 | SID160752026 | -0.449 | 73 | 0.734 | inactive |
| SLC25A33 | SID160752028 | -0.401 | 73.9 | -0.474 | inactive |
| SLC25A33 | SID160752029 | -0.0728 | 80.4 | 0.0158 | inactive |
| DAZAP2 (DAZ associated protein 2) | SID160723124 | 0.629 | 94.4 | 0.264 | inactive |
| DAZAP2 (DAZ associated protein 2) | SID160723125 | -0.663 | 68.7 | -0.56 | inactive |
| DAZAP2 (DAZ associated protein 2) | SID160735253 | 3.42 | 150 | 2.95 | active |
| NELFB (negative elongation factor complex member B) | SID160737253 | 3.35 | 149 | 1.83 | active |
| NELFB (negative elongation factor complex member B) | SID160737254 | -0.778 | 66.4 | -0.831 | inactive |
| NELFB (negative elongation factor complex member B) | SID160737255 | 2.64 | 134 | 2.05 | inactive |
| LRRC52 (leucine rich repeat containing 52) | SID160731244 | -0.533 | 71.3 | -1.09 | inactive |
| LRRC52 (leucine rich repeat containing 52) | SID160767843 | 0.723 | 96.3 | 1 | inactive |
| LRRC52 (leucine rich repeat containing 52) | SID160767844 | -1.15 | 59.1 | -0.262 | inactive |
| TVP23C (trans-golgi network vesicle protein 23 homolog C) | SID160724928 | -0.632 | 69.3 | -0.394 | inactive |
| TVP23C (trans-golgi network vesicle protein 23 homolog C) | SID160732660 | 0.342 | 88.7 | 0.159 | inactive |
| TVP23C (trans-golgi network vesicle protein 23 homolog C) | SID160760932 | -0.186 | 78.2 | 1.61 | inactive |
| HEXD (hexosaminidase D) | SID160732958 | 0.0343 | 82.6 | -0.274 | inactive |
| HEXD (hexosaminidase D) | SID160763112 | 0.896 | 99.7 | 1.11 | inactive |
| HEXD (hexosaminidase D) | SID160763113 | 0.173 | 85.3 | 0.0131 | inactive |
| AP2B1 (adaptor related protein complex 2 subunit beta 1) | SID160749084 | 0.0168 | 82.2 | -0.526 | inactive |
| AP2B1 (adaptor related protein complex 2 subunit beta 1) | SID160750146 | 1.2 | 106 | 1.61 | inactive |
| AP2B1 (adaptor related protein complex 2 subunit beta 1) | SID160751196 | 0.868 | 99.1 | 0.542 | inactive |
| IFITM1 (interferon induced transmembrane protein 1) | SID160720224 | 1.38 | 109 | 1.48 | inactive |
| IFITM1 (interferon induced transmembrane protein 1) | SID160720225 | -0.377 | 74.4 | 1.88 | inactive |
| IFITM1 (interferon induced transmembrane protein 1) | SID160735139 | -1.08 | 60.5 | 0.483 | inactive |
| GAL (galanin and GMAP prepropeptide) | SID160740003 | 3.17 | 145 | 2.06 | active |
| GAL (galanin and GMAP prepropeptide) | SID160740004 | 0.537 | 92.6 | 0.242 | inactive |
| GAL (galanin and GMAP prepropeptide) | SID160740005 | -0.586 | 70.2 | -1.16 | inactive |
| KCNQ2 (potassium voltage-gated channel subfamily Q member 2) | SID160776242 | -0.276 | 76.4 | 0.645 | inactive |
| KCNQ2 (potassium voltage-gated channel subfamily Q member 2) | SID160776243 | 0.459 | 91 | 0.693 | inactive |
| KCNQ2 (potassium voltage-gated channel subfamily Q member 2) | SID160776244 | 0.694 | 95.7 | 0.023 | inactive |
| ZNF234 (zinc finger protein 234) | SID160729203 | 0.412 | 90.1 | -0.056 | inactive |
| ZNF234 (zinc finger protein 234) | SID160729204 | 0.311 | 88.1 | -0.168 | inactive |
| ZNF234 (zinc finger protein 234) | SID160729205 | -0.401 | 73.9 | -0.386 | inactive |
| PREPL (prolyl endopeptidase like) | SID160722550 | 0.556 | 92.9 | 0.277 | inactive |
| PREPL (prolyl endopeptidase like) | SID160722551 | -0.547 | 71 | -0.153 | inactive |
| PREPL (prolyl endopeptidase like) | SID160722552 | 0.227 | 86.4 | -0.118 | inactive |
| FBXL8 (F-box and leucine rich repeat protein 8) | SID160733600 | 0.0595 | 83.1 | -0.4 | inactive |
| FBXL8 (F-box and leucine rich repeat protein 8) | SID160743575 | 0.348 | 88.8 | 0.613 | inactive |
| FBXL8 (F-box and leucine rich repeat protein 8) | SID160743576 | -0.41 | 73.7 | -0.867 | inactive |
| MAEA (macrophage erythroblast attacher, E3 ubiquitin ligase) | SID160728108 | -0.889 | 64.2 | -0.802 | inactive |
| MAEA (macrophage erythroblast attacher, E3 ubiquitin ligase) | SID160728109 | -0.713 | 67.7 | -0.0432 | inactive |
| MAEA (macrophage erythroblast attacher, E3 ubiquitin ligase) | SID160728111 | 0.319 | 88.2 | -0.121 | inactive |
| ZNF394 (zinc finger protein 394) | SID160751747 | -0.212 | 77.7 | -0.508 | inactive |
| ZNF394 (zinc finger protein 394) | SID160751748 | -0.314 | 75.6 | 0.00513 | inactive |
| ZNF394 (zinc finger protein 394) | SID160751749 | 1.29 | 108 | 1.53 | inactive |
| CST9 (cystatin 9) | SID160732451 | -0.804 | 65.9 | -1.06 | inactive |
| CST9 (cystatin 9) | SID160756804 | 0.176 | 85.4 | -0.224 | inactive |
| CST9 (cystatin 9) | SID160756805 | -2.61 | 30 | -2.57 | inactive |
| ECRG4 (ECRG4 augurin precursor) | SID160752217 | -0.78 | 66.4 | -0.819 | inactive |
| ECRG4 (ECRG4 augurin precursor) | SID160752218 | 0.846 | 98.7 | 0.431 | inactive |
| ECRG4 (ECRG4 augurin precursor) | SID160752219 | -0.774 | 66.5 | -1.48 | inactive |
